Measured values published in patent publication US20120220039A1, “METHOD AND SYSTEM FOR DETECTING RESIDUAL POISON IN HUMAN BODY” (THE HONG KONG UNIVERSITY OF SCIENCE AND TECHNOLOGY, priority 2009, published 2012).

Experiments:
[1] = Sensitivity (LOD/LOQ) of HPLC-Chip-MS/MS method, blank hair sample spiked with drug standard; set-up: species or system human
[2] = Sensitivity (LOD/LOQ) of conventional GC-MS/MS method; details: Table 1
[3] = blank hair sample spiked with standard

Row | Compound | Limit of detection (LOD) ([1]; Table 1) [pg/mg] | Limit of quantification (LOQ) ([1]; Table 1) [pg/mg] | Limit of detection (LOD) [1, 3] [pg/mg] | Limit of quantification (LOQ) [1, 3] [pg/mg] | Limit of detection (LOD) [2] [pg/mg] | Limit of quantification (LOQ) [2] [pg/mg]
1 | CC(=O)[C@]1(O)C=C[C@H]2[C@H]3Cc4ccc(O)c5c4[C@@]2(CCN3C)[C@H]1O5 [6-acetylmorphine] | 2 | 2 | 2 | 10 | 30 | 500
2 | CN1[C@H]2CC[C@@H]1[C@@H](C(=O)O)[C@@H](OC(=O)c1ccccc1)C2 [Benzoylecgonine] | 0.1 | 0.1 | 0.1 | 0.5 | 15 | 50
3 | CN[C@@H](C)Cc1ccccc1 [Methamphetamine] | 0.1 | 0.1 | 2.5 | 5 | 100 | 500
4 | Ketamine | 0.1 | 0.1 | 0.1 | 1 | 200 | 500
5 | Methadone | 0.1 | 0.1 | 0.1 | 0.5 | 200 | 800
